These are yes or no findings as the source states them, for the method shown. Some entries that bind do so weakly or less than the wild type.
Molecular target: cTnI quality control product recombinant protein (human) (UniProt P19429)
Test: sandwich ELISA (Table 2)

binding: binds
B1: Mutation 1 (antibody, V domains shown)
VH: EVQLQQSGPELVKPGASVKMSCKASGYTFTLYVVHWVKQKPGQGLEWIGYIQPYLDGTKYNEKFKGKATLTVDKSSSTAFMELSSLTSEDSAVYYCARSGYGGYGLAWLAYWGQGTLVTVSA
VL: QAVVIQESALTTSPGETVTLTCRSSTGAATTSQYANWVQEKPDHLFTGLIGGSNNRAPGVPARFSGSLIGDKAALTITGAQTEDEAIYFCALVYSNHWVFGGGTKLTVLG
notes: CDR mutant of WT
